Measured values published in paper PMC4639907.
No constants are given. Whether binding was seen depends on the method and setting. Binding seen in cells or lysates may run through a third protein. Some entries that bind do so weakly or less than the wild type.

The chains behind the UniProt entries cited, without tags or fusion partners.
UniProt P61809: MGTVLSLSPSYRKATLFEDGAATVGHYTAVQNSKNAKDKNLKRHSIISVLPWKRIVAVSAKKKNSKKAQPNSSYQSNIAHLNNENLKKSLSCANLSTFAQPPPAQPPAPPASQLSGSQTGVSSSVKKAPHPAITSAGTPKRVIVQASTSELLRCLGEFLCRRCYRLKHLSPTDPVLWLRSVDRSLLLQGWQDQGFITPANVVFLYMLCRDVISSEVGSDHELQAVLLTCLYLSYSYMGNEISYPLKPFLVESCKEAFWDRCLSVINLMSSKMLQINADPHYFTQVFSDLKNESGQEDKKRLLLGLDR

Target: p35, the activator of cyclin-dependent kinase 5 (Cdk5) (mouse (endogenous in hippocampus)) (UniProt P61809)
Experiment: co-IP; hippocampal lysates of 3-month-old mice immunoprecipitated with p35 or PJA2 antibodies (IgG as control), western blot of the co-immunoprecipitates

B1: E3 ubiquitin ligase Praja-2 (PJA2) (protein, UniProt Q80U04 1-707)
chain: MSQYTEKEPSVMDQESSKAAWPKPAGGYQTITGRRYGRRHAYVSFKPCMTRHERSLGRAGDDYEVLELDDVPKENTSGSSSLDQVHPALPNEPTVEKSETEISTCGPALNQSTESSPSIATVCHSEEVRETLESNTNLHNRTETEHTPAVCNVSSVQNGIMLVHTDSYDPDSKHDENGSLQLGAEAVEGGRHQKGLGRAVFELENGEAEIYADLSPSVPSLNGEISEAFEELDSAPLEKSSTADAELVHQNGQEFQRSSEDGVVRKRRQDDTDQGRQTENSTEDADCAPGHVEQNTSDRANHHGSSPEQVVRPKVRKVISSSQVDQEIGFNRHEAKQRSVQRWREALEVEECSSDDPIIKCDDYDGDHDCMFLTPTYSRVTQRETERNRVTSENGATASGRQESRDNAFWNACGEYYQLFDKDEDSSECSDGEWSASLPHRFSGTEKDQSSSDDSWETLPGKDENDPELQSDSSGPEEENQELSLQEGEQTSLEEGEIPWLQYNEVNESSSDEGNEPANEFAQPEAFMLDGNNNLEDDSSVSEDLDVDWSLFDGFADGLGVAEAISYVDPQFLTYMALEERLAQAMETALAHLESLAVDVEVANPPASKESIDGLPETLVLEDHTAIGQEQCCPICCSEYIKDDIATELPCHHFFHKPCVSIWLQKSGTCPVCRRHFPPAVIDASAAASSDPDPDASPANDNAEEAP
binding: binds
